Laboratory results: PubChem BioAssay AID1259254 (NCATS, 2017)

Assay: 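Finding genes that stop cells copying their DNA twice in one cycle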 (primary screen)
Cell system: human HCT116 colorectal cancer cells
Reagents: single siRNA against human genes
Timing: 3 days
Measured: 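Nuclei stained with Hoechst and imaged; cell-cycle phase assigned by DNA content; G2 share scaled per plate, non-targeting siRNA 0%, GMNN siRNA 100%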
Scale: G2 robust z-score and G2 cells, % of GMNN control: higher = more G2 cells, more excess DNA replication; raw share of cells in G2: higher = larger share of cells with G2 DNA content
Active means: 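An siRNA counts as active if its G2 robust z-score lies at least 5 MADs above the screen median; here such calls match roughly 38% of GMNN control or more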
Shown is one part, drawn at random, of about 59,000 reagents tested. About 1,550 of them (2.6%) were called active. 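G2 share is only a proxy for re-replication; each gene was hit by three separate siRNAs, and active genes were retested.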 Raw values vary from plate to plate and are shown uncorrected. A number with no mark means an inactive call. Reagents against one gene are numbered here. The record does not give: the amount of reagent.

| G2 robust z-score | G2 cells, % of GMNN control | raw share of cells in G2 (%) | Target gene | siRNA no. |
| --- | --- | --- | --- | --- |
| -1.22 | -5.6 | 3.85 | HIPK4 (homeodomain interacting protein kinase 4) | 1 |
| -0.0353 | 2.72 | 6.18 | HIPK4 (homeodomain interacting protein kinase 4) | 2 |
| -1.48 | -7.44 | 1.3 | HIPK4 (homeodomain interacting protein kinase 4) | 3 |
| -1.3 | -6.2 | 2.08 | DMXL2 (Dmx like 2) | 1 |
| 1.38 | 12.7 | 9.43 | DMXL2 (Dmx like 2) | 2 |
| -0.842 | -2.96 | 2.27 | DMXL2 (Dmx like 2) | 3 |
| -0.311 | 0.781 | 3.07 | SIX4 (SIX homeobox 4) | 1 |
| -0.632 | -1.48 | 5.24 | SIX4 (SIX homeobox 4) | 2 |
| -0.277 | 1.02 | 3.95 | SIX4 (SIX homeobox 4) | 3 |
| -0.475 | -0.378 | 3.71 | SIT1 (signaling threshold regulating transmembrane adaptor 1) | 1 |
| -0.2 | 1.56 | 5.14 | SIT1 (signaling threshold regulating transmembrane adaptor 1) | 2 |
| -0.113 | 2.17 | 3.94 | SIT1 (signaling threshold regulating transmembrane adaptor 1) | 3 |
| 3.81 | 29.8 | 15.6 | DHX15 (DEAH-box helicase 15) | 1 |
| 0.872 | 9.1 | 8.32 | DHX15 (DEAH-box helicase 15) | 2 |
| -1.05 | -4.4 | 2.58 | DHX15 (DEAH-box helicase 15) | 3 |
| -1.73 | -9.17 | 0.32 | FAM8A1 (family with sequence similarity 8 member A1) | 1 |
| 0.231 | 4.6 | 6.21 | FAM8A1 (family with sequence similarity 8 member A1) | 2 |
| 0.481 | 6.35 | 5.29 | FAM8A1 (family with sequence similarity 8 member A1) | 3 |
| -0.839 | -2.94 | 3.4 | PLEKHB2 (pleckstrin homology domain containing B2) | 1 |
| 2.06 | 17.5 | 11.4 | PLEKHB2 (pleckstrin homology domain containing B2) | 2 |
| -0.918 | -3.49 | 2.02 | PLEKHB2 (pleckstrin homology domain containing B2) | 3 |
| 0.862 | 9.03 | 7.91 | KIDINS220 (kinase D interacting substrate 220) | 1 |
| 2 | 17.1 | 12.6 | KIDINS220 (kinase D interacting substrate 220) | 2 |
| -0.274 | 1.04 | 3.36 | KIDINS220 (kinase D interacting substrate 220) | 3 |
| 2.91 | 23.4 | 14 | TEX30 (testis expressed 30) | 1 |
| 0.937 | 9.56 | 6 | TEX30 (testis expressed 30) | 2 |
| 0.351 | 5.44 | 4.65 | TEX30 (testis expressed 30) | 3 |
| -0.0632 | 2.52 | 7.54 | DHX33 (DEAH-box helicase 33) | 1 |
| 3.11 | 24.9 | 13.4 | DHX33 (DEAH-box helicase 33) | 2 |
| -0.666 | -1.72 | 3.62 | DHX33 (DEAH-box helicase 33) | 3 |
